No constants are given. Whether binding was seen depends on the method and setting. In cells and extracts the contact can be indirect. Binding can be weak; no strength is given. Where a sequence is shown, tags or fusion partners need not be part of it.
Target: T1, GFP–S100A11 (S100 Ca2+-binding protein A11) (human) (UniProt P31949)
T1 sequence: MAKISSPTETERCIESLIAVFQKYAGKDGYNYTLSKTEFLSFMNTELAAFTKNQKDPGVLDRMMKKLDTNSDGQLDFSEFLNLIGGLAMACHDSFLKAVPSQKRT
Assay: co-IP; GFP-Trap beads on cleared lysates of clonal MCF-10A cells stably expressing GFP–S100A11, arrested in metaphase; mild lysis buffer (50 mM Tris-HCl pH 7.4, 150 mM NaCl, 0.5 mM EDTA, 10 mM NaF, 1 mM Na3VO4, 0.5% NP40); western blotting of the immunoprecipitates

- binding: binds
Substance: E-cadherin (human (endogenous in MCF-10A))
